These are yes or no findings as the source states them, for the method shown. Binding seen in cells or lysates may run through a third protein. Binding calls can cover weak binding; strength is not graded here.
Target: T1, CG9890 protein (D. melanogaster (endogenous in S2)) (UniProt Q9W1V7)
T1 sequence: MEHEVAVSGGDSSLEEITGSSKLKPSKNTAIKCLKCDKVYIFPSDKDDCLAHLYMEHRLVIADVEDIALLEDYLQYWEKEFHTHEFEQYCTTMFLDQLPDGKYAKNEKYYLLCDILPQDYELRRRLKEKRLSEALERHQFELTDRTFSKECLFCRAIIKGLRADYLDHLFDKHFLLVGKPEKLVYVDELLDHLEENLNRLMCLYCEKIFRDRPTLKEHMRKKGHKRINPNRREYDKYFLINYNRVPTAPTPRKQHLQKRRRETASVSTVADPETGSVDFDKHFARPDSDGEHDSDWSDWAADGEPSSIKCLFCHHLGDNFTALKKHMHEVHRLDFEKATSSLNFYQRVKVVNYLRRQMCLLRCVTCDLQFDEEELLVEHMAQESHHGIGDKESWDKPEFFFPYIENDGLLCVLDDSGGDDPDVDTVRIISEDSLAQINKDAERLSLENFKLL
Assay: co-IP; immunoprecipitation with polyclonal anti-CG9890 antibodies immobilised on Mab-sepharose from S2 nuclear lysate (MN III buffer: 20 mM HEPES KOH, 3 mM MgCl2, 0.1% NP40, 0.1 M KCl, pH 8.0; sonicated, DNase I treated), 3 h at +4 °C; Western blot; IgG of an unimmunized rabbit as negative control

binding: binds
Substance: Polybromo (PB) protein, subunit of the dSWI/SNF complex (D. melanogaster (endogenous in S2))
